Paper doi:10.64898/2025.12.12.693873
No constants are given. Whether binding was seen depends on the method and setting. In cells and extracts the contact can be indirect. For some of these results: Binding can be weak; no strength is given. For some of these results: Tags and fused reporters may be left off the sequences shown.

Sequences of proteins named here, by UniProt entry; tags and fusion partners are left off. A change or cut given only in a name is not applied to a line headed by its entry.
UniProt Q7KT57: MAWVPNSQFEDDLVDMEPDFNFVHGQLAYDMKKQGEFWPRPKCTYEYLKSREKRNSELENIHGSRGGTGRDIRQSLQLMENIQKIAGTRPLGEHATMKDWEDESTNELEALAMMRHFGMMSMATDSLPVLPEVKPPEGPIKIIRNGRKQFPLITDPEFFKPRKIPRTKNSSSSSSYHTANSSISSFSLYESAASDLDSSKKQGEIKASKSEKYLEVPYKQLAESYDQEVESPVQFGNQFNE

What was measured:
Assay in all cases: co-IP
[1] = biological target: T1, Myc-tagged Spn-E^4A (Drosophila melanogaster) (UniProt Q9VF26)
T1 sequence: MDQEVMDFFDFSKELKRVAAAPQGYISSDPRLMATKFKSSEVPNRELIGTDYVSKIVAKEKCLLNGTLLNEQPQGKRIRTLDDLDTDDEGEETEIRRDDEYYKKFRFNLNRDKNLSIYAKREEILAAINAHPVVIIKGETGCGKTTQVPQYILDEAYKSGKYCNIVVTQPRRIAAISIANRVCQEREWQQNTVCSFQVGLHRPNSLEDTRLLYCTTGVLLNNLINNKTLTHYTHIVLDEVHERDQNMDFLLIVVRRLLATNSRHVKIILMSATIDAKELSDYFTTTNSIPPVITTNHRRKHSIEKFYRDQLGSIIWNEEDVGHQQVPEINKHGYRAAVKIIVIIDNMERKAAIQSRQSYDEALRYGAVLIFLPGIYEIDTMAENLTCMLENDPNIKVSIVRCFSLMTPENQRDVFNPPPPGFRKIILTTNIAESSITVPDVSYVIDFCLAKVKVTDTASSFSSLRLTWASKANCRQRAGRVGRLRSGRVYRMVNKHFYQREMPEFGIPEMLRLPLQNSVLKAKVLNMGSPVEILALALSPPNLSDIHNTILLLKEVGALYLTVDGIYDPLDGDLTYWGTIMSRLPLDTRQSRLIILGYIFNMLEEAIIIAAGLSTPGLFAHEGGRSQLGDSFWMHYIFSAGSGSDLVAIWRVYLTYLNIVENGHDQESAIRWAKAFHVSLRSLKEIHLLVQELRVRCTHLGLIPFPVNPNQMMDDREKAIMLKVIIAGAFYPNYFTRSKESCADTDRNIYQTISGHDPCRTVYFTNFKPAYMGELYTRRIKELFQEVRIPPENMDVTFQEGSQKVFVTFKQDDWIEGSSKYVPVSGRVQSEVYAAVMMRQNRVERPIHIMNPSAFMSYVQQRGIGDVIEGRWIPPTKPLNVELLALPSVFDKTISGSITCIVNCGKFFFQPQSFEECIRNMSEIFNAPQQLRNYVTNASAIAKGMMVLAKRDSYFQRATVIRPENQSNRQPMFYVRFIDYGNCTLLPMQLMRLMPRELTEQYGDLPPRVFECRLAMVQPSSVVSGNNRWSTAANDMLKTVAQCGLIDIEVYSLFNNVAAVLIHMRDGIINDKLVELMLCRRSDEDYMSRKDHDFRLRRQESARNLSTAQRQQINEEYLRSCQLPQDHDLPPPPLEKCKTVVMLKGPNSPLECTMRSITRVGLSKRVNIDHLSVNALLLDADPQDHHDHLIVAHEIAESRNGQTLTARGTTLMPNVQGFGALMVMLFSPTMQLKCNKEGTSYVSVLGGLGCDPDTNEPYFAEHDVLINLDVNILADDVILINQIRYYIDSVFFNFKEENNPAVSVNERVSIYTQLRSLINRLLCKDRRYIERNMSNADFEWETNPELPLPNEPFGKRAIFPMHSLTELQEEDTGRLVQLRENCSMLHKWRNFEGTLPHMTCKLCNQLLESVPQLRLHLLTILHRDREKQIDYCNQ

[2] = biological target: T2, Myc-tagged Spn-E^WT (Drosophila melanogaster) (UniProt Q9VF26)
T2 sequence: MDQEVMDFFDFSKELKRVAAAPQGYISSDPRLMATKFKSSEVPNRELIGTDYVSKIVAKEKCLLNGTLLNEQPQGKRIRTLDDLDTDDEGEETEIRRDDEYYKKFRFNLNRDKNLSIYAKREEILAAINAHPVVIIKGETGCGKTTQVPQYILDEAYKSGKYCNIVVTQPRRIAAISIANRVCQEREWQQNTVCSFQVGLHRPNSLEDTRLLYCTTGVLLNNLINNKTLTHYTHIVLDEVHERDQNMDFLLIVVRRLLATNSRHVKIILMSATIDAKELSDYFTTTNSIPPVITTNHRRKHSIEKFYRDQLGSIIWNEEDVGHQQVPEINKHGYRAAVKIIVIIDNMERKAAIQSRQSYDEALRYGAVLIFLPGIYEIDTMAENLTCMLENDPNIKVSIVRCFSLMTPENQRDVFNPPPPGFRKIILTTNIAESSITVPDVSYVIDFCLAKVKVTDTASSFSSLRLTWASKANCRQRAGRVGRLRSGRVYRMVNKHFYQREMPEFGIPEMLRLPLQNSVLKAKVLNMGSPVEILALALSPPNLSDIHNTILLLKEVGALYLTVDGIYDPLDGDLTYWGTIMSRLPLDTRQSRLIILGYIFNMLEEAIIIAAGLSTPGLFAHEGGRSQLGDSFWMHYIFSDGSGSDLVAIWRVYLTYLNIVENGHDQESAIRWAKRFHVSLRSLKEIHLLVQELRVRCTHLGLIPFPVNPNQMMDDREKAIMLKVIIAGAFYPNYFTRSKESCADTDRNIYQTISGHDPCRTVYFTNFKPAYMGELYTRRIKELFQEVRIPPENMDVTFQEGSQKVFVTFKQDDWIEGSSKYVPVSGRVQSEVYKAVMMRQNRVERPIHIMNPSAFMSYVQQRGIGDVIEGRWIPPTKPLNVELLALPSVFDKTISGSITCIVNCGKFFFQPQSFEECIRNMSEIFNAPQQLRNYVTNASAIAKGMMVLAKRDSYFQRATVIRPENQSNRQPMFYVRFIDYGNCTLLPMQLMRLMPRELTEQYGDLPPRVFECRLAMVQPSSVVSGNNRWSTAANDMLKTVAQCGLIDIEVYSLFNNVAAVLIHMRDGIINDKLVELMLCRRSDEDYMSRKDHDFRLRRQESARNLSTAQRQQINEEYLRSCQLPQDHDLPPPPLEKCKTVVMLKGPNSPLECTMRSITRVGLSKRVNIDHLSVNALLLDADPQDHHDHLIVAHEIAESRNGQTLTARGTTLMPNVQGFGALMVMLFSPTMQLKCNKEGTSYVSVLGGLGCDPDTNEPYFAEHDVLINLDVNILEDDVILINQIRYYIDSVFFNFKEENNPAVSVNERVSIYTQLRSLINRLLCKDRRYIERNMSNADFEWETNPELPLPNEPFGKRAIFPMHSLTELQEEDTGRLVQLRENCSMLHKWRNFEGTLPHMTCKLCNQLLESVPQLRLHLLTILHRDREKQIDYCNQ

[3] = biological target: Squash (Squ), endogenous (Drosophila melanogaster (endogenous in ovaries)) (UniProt Q7KT57)
[4] = biological target: GFP-3xFlag-Squ^WT (pNative-Squ^WT) (Drosophila melanogaster)
[5] = biological target: GFP-3xFlag-Squ^4A (pNative-Squ^4A) (Drosophila melanogaster)

Molecule	binding [1]	binding [2]	binding [3]	binding [4]	binding [5]
Flag-Squ (Drosophila melanogaster)	no binding	binds			
Spindle-E (Spn-E), endogenous (protein, UniProt Q9VF26 1-1434) MDQEVMDFFDFSKELKRVAAAPQGYISSDPRLMATKFKSSEVPNRELIGTDYVSKIVAKEKCLLNGTLLNEQPQGKRIRTLDDLDTDDEGEETEIRRDDEYYKKFRFNLNRDKNLSIYAKREEILAAINAHPVVIIKGETGCGKTTQVPQYILDEAYKSGKYCNIVVTQPRRIAAISIANRVCQEREWQQNTVCSFQVGLHRPNSLEDTRLLYCTTGVLLNNLINNKTLTHYTHIVLDEVHERDQNMDFLLIVVRRLLATNSRHVKIILMSATIDAKELSDYFTTTNSIPPVITTNHRRKHSIEKFYRDQLGSIIWNEEDVGHQQVPEINKHGYRAAVKIIVIIDNMERKAAIQSRQSYDEALRYGAVLIFLPGIYEIDTMAENLTCMLENDPNIKVSIVRCFSLMTPENQRDVFNPPPPGFRKIILTTNIAESSITVPDVSYVIDFCLAKVKVTDTASSFSSLRLTWASKANCRQRAGRVGRLRSGRVYRMVNKHFYQREMPEFGIPEMLRLPLQNSVLKAKVLNMGSPVEILALALSPPNLSDIHNTILLLKEVGALYLTVDGIYDPLDGDLTYWGTIMSRLPLDTRQSRLIILGYIFNMLEEAIIIAAGLSTPGLFAHEGGRSQLGDSFWMHYIFSDGSGSDLVAIWRVYLTYLNIVENGHDQESAIRWAKRFHVSLRSLKEIHLLVQELRVRCTHLGLIPFPVNPNQMMDDREKAIMLKVIIAGAFYPNYFTRSKESCADTDRNIYQTISGHDPCRTVYFTNFKPAYMGELYTRRIKELFQEVRIPPENMDVTFQEGSQKVFVTFKQDDWIEGSSKYVPVSGRVQSEVYKAVMMRQNRVERPIHIMNPSAFMSYVQQRGIGDVIEGRWIPPTKPLNVELLALPSVFDKTISGSITCIVNCGKFFFQPQSFEECIRNMSEIFNAPQQLRNYVTNASAIAKGMMVLAKRDSYFQRATVIRPENQSNRQPMFYVRFIDYGNCTLLPMQLMRLMPRELTEQYGDLPPRVFECRLAMVQPSSVVSGNNRWSTAANDMLKTVAQCGLIDIEVYSLFNNVAAVLIHMRDGIINDKLVELMLCRRSDEDYMSRKDHDFRLRRQESARNLSTAQRQQINEEYLRSCQLPQDHDLPPPPLEKCKTVVMLKGPNSPLECTMRSITRVGLSKRVNIDHLSVNALLLDADPQDHHDHLIVAHEIAESRNGQTLTARGTTLMPNVQGFGALMVMLFSPTMQLKCNKEGTSYVSVLGGLGCDPDTNEPYFAEHDVLINLDVNILEDDVILINQIRYYIDSVFFNFKEENNPAVSVNERVSIYTQLRSLINRLLCKDRRYIERNMSNADFEWETNPELPLPNEPFGKRAIFPMHSLTELQEEDTGRLVQLRENCSMLHKWRNFEGTLPHMTCKLCNQLLESVPQLRLHLLTILHRDREKQIDYCNQ			binds	binds	
Ago3, endogenous (protein, UniProt Q7PLK0 1-867) MSGRGNLLSLFNKNAGNMGKSISSKDHEIDSGLDFNNSESSGERLLSSHNIETDLITTLQHVNISVGRGRARLIDTLKTDDHTSNQFITSESKENITKKTKGPESEAIASENGLFFPDLIYGSKGSSVNIYCNYLKLTTDESKGVFNYEVRFFPPIDSVHLRIKYLNDHKDKLGGTKTFDGNTLYLPILLPNKMTVFISKAEDVELQIRILYKKKEEMRNCTQLYNILFDRVMKVLNYVKFDRKQFDPSRPKIIPLAKLEVWPGYVTAVDEYKGGLMLCCDVSHRILCQKTVLEMLVDLYQQNVEHYQESARKMLVGNIVLTRYNNRTYKINDICFDQNPTCQFEIKTGCTSYVEYYKQYHNINIKDVNQPLIYSIKKSRGIPAERENLQFCLIPELCYLTGLRDEVRSDNKLMREIATFTRVSPNQRQMALNKFYENVSNTPAAQEILNSWGLSLTNNSNKISGRQMDIEQIYFSKISVSAGRSAEFSKHAVTNEMLKVVHLSKWIIIHLRNYRQAATSLLDNMKQACESLGMNISNPTMISLDHDRIDAYIQALRRNITMNTQMVVCICHNRRDDRYAAIKKICCSEIPIPSQVINAKTLQNDLKIRSVVQKIVLQMNCKLGGSLWTVKIPFKNVMICGIDSYHDPSNRGNSVAAFVASINSSYSQWYSKAVVQTKREEIVNGLSASFEIALKMYRKRNGKLPTNIIIYRDGIGDGQLYTCLNYEIPQFEMVCGNRIKISYIVVQKRINTRIFSGSGIHLENPLPGTVVDQHITKSNMYDFFLVSQLVRQGTVTPTHYVVLRDDCNYGPDIIQKLSYKLCFLYYNWAGTVRIPACCMYAHKLAYLIGQSIQRDVAEALSEKLFYL			binds weakly	binds	binds
